Experimental data from PMC7265341, “Quantifying CDK inhibitor selectivity in live cells” (Nature Communications, 2020).
Values joined by “and” are separate entries in the source; they are usually repeats but may differ in a detail not shown here. Equal entries are not always repeated. Further values from the same series stand in other lists.

Protein sequences, listed by entry. Tags and fused reporters are not part of them. Lines headed by an entry give the natural chain unless they say otherwise; changes in a name come on top.
UniProt P50613: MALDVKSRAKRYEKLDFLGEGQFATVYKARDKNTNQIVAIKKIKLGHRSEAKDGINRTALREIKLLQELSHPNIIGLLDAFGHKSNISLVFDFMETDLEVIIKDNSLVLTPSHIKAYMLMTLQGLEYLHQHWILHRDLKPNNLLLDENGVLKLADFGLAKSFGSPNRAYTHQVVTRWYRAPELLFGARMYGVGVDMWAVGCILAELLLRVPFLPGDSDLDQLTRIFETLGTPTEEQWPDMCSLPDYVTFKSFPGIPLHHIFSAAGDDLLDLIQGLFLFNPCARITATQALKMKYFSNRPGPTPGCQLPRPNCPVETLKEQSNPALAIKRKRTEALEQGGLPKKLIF

Target: CDK7 (Homo sapiens, UniProt P50613)
Assay: Intracellular residence time by cellular washout, CDK7
Type: binding
Conditions: Panel B
Experimental: However, residence times for this and many of the other CDKi’s in our panel have not been reported in cell-free or cellular contexts. […] This condition was selected to ensure adequate target occupancy prior to compound washout. Residence time was then evaluated by a rapid compound washout procedure, followed by addition of energy transfer probe 1. Under these conditions, the rate of the energy transfer signal increase serves as a direct proxy for the loss of the target-CDKi interaction[18],[56],[57].
Residence time was qualitatively assessed via a cellular washout approach, where delayed energy probe association is used as an indirect measurement for the durability of target/compound engagement. […] After 2 h of incubation at 37 °C, the medium was aspirated from the cells and replaced with fresh OptiMEM containing NanoBRET NanoGlo Substrate and Extracellular NanoLuc Inhibitor. […] Occupancy values were plotted as a function of time.
Supplementary Figure 22. […] Residence […]
time was qualitatively assessed by cellular washout as described in the method details and compared to association of energy transfer probe in cells treated with DMSO vehicle. […]
engagement at CDK6 and kinetic selectivity for CDK6 compared to CDK2 and CDK7. BRET ratios were normalized between the maximum BRET value vs BRET value in the absence of tracer. Kinetic traces and individual points are mean of 3 independent experiments ± S.E.M (n = 3). Source data are provided as a […]

COCCN1CCN(Cc2ccc(-c3n[nH]c4c3C(=O)c3c(NC(=O)NN5CCOCC5)cccc3-4)cc2)CC1 [RGB286638]
CDK7 (Time (Min) 41.9753): 75.102 and 91.6667
CDK7 (Time (Min) 44.9758): 90.2344 and 75.6463 and 98.2143
CDK7 (Time (Min) 47.9761): 90.5812 and 75.6463 and 95.5357
CDK7 (Time (Min) 50.9766): 90.3038 and 76.1905 and 93.006
CDK7 (Time (Min) 53.9771): 91.4135 and 76.0544 and 98.3631
CDK7 (Time (Min) 56.9772): 90.2344 and 75.9184 and 90.9226
CDK7 (Time (Min) 59.9777): 91.3442 and 77.1429 and 90.625
CDK7 (Time (Min) 62.9781): 89.6796 and 76.8708 and 95.5357
CDK7 (Time (Min) 65.9785): 88.7779 and 75.8503 and 90.1786
CDK7 (Time (Min) 68.9792): 90.0957 and 76.8708 and 93.4524
CDK7 (Time (Min) 71.9792): 91.2054 and 76.8708 and 93.6012
CDK7 (Time (Min) 74.9799): 90.1651 and 77.8912 and 92.4107
CDK7 (Time (Min) 77.9802): 89.8183 and 79.1837 and 90.625
CDK7 (Time (Min) 80.9806): 89.957 and 79.932 and 91.8155
CDK7 (Time (Min) 83.9813): 90.5119 and 81.6326 and 91.9643
CDK7 (Time (Min) 86.9817): 88.2231 and 82.517 and 86.0119
CDK7 (Time (Min) 89.9825): 88.2924 and 82.7211 and 83.1845
CDK7 (Time (Min) 92.9826): 88.9166 and 82.9932 and 85.7143
CDK7 (Time (Min) 95.9831): 87.4601 and 82.9932 and 87.3512
CDK7 (Time (Min) 98.9837): 87.5295 and 84.8299
CDK7 (Time (Min) 101.984): 87.3908 and 82.9932 and 87.2024
CDK7 (Time (Min) 104.984): 86.3504 and 84.8299 and 84.0774
CDK7 (Time (Min) 107.985): 87.6682 and 88.0272 and 80.9524
CDK7 (Time (Min) 110.985): 86.6972 and 87.0748 and 88.0952
CDK7 (Time (Min) 113.986): 87.3908 and 83.1973 and 78.869
CDK7 (Time (Min) 116.986): 86.2117 and 89.1157 and 90.7738
CDK7 (Time (Min) 119.987): 86.8359 and 88.5714 and 81.8452
CDK7 (Time (Min) 122.987): 85.0326 and 89.5238 and 78.869
CDK7 (Time (Min) 125.988): 85.31 and 89.932 and 87.5
CDK7 (Time (Min) 128.988): 86.3504 and 89.7959 and 85.2679
CDK7 (Time (Min) 131.988): 85.7262 and 89.5918 and 88.6905
CDK7 (Time (Min) 134.989): 85.1713 and 87.0748 and 78.125
CDK7 (Time (Min) 137.989): 86.4198 and 82.7211 and 86.1607
CDK7 (Time (Min) 140.99): 85.3794 and 77.2109 and 79.7619
CDK7 (Time (Min) 143.99): 84.6858 and 73.8095 and 70.3869
CDK7 (Time (Min) 146.99): 85.5181 and 74.0816 and 73.0655
CDK7 (Time (Min) 149.991): 84.6165 and 72.585 and 76.0417
CDK7 (Time (Min) 152.992): 73.6054
CDK7 (Time (Min) 152.992, listed as RGB-286638): 85.102 and 83.3333
CDK7 (Time (Min) 155.992): 83.8535 and 72.6531 and 74.4048
CDK7 (Time (Min) 158.992): 84.6858 and 72.3809 and 63.6905
CDK7 (Time (Min) 161.993): 82.7438 and 71.5646 and 91.0714
CDK7 (Time (Min) 164.993): 84.2003 and 72.9932 and 81.994
CDK7 (Time (Min) 167.994): 83.7842 and 72.449 and 84.5238
CDK7 (Time (Min) 170.994): 81.9809 and 72.7211 and 75.8929
CDK7 (Time (Min) 173.995): 83.2987 and 72.3809 and 89.4345
CDK7 (Time (Min) 176.995): 77.9762
CDK7 (Time (Min) 176.995, listed as RGB-286638): 84.4777 and 71.7007
CDK7 (Time (Min) 179.995): 83.4374 and 71.1565 and 72.0238
CDK7 (Time (Min) 182.996): 82.397 and 71.9048 and 80.9524
CDK7 (Time (Min) 185.996): 84.0616 and 71.9048 and 80.0595
CDK7 (Time (Min) 188.996): 82.397 and 70.8843 and 78.125
CDK7 (Time (Min) 191.996): 82.3276 and 72.3129 and 72.4702
CDK7 (Time (Min) 194.996): 83.9922 and 71.3605 and 63.8393
CDK7 (Time (Min) 197.996): 82.6744 and 71.0884 and 75.744
CDK7 (Time (Min) 200.996): 82.397 and 72.6531 and 83.631
CDK7 (Time (Min) 203.996): 84.8245 and 71.2245 and 73.2143
CDK7 (Time (Min) 206.996): 84.0616 and 72.7211 and 70.0893
CDK7 (Time (Min) 209.996): 82.2583 and 70.8163 and 74.5536
CDK7 (Time (Min) 212.996): 81.9115 and 72.2449 and 71.2798
CDK7 (Time (Min) 215.996): 80.9405 and 71.9048 and 68.006
CDK7 (Time (Min) 218.996): 81.9809 and 69.6599 and 69.6429
CDK7 (Time (Min) 221.996): 80.6631 and 69.7959 and 77.0833
CDK7 (Time (Min) 224.996): 80.3856 and 71.0204 and 77.6786
CDK7 (Time (Min) 227.996): 84.7552 and 72.585 and 64.881
CDK7 (Time (Min) 230.996): 80.6631 and 70.6122 and 72.1726
